No constants are given. Whether binding was seen depends on the method and setting. In cells and extracts the contact can be indirect. Some results given as binding are weak or reduced against the parent protein; the word gives no strength. For part of these data: Tags and fused reporters may be left off the sequences shown.
How the values were obtained:
[1] = target: T1, Recombinant human ECM1 tagged with Flag (extracellular matrix protein 1) (human) (UniProt Q16610); assay: co-IP; C4-2B cells treated with ECM1-Flag protein (200 ng/mL); lysates; antibodies with protein A/G magnetic beads overnight at 4 °C or anti-Flag beads; western blot of endogenous partners; only the target purified
T1 sequence: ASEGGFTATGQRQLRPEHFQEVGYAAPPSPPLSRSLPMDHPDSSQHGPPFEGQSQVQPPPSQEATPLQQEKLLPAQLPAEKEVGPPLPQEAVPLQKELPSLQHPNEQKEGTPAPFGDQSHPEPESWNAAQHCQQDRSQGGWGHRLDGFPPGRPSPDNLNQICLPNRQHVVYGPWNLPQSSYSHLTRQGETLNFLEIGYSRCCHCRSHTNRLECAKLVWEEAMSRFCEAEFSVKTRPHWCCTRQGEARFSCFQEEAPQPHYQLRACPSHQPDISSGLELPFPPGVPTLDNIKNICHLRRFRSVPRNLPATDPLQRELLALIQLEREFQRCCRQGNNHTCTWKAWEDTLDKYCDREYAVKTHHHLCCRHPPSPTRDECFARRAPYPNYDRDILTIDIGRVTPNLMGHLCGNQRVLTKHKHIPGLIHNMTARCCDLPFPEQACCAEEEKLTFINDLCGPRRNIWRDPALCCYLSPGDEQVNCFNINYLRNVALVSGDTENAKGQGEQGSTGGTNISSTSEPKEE

Amino acid sequences for entries named in this document (tags omitted). A change or cut given only in a name is not applied to a line headed by its entry.
UniProt P06733: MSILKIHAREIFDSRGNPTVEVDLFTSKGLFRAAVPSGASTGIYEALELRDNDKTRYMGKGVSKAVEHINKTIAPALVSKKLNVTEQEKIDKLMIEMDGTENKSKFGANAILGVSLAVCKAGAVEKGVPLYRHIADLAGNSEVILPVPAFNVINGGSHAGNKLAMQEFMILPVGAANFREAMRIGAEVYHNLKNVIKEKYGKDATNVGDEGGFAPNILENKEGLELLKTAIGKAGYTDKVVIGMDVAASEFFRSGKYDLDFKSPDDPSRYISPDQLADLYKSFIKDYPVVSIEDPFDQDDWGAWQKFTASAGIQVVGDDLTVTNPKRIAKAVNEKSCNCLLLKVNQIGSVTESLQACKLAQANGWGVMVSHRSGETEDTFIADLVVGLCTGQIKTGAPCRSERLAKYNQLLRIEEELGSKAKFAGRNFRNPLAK
UniProt P62993: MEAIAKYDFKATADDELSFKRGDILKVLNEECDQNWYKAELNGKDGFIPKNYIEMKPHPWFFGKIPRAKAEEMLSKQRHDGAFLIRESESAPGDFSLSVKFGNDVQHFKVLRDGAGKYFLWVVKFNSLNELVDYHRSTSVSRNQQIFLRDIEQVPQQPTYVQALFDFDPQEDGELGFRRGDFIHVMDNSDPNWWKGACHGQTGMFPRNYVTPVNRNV

HA-ENO1-Y189E (human) = HA-ENO1-Y189E (human) (UniProt P06733); assay: co-IP; C4-2B cells expressing ENO1 mutants (Y189F, Y189E), in the presence of ECM1 (200 ng/mL); ENO1 against GRB2 and SOS1
[2] = target: Enolase 1 (ENO1), endogenous in C4-2B cells (human (endogenous in C4-2B)) (UniProt P06733); assay: co-IP; endogenous ENO1 with GRB2 and SOS1 in C4-2B lysates, in the presence or absence of ECM1 (200 ng/mL)

Row | Substance | binding [1] | binding (HA-ENO1-Y189E (human)) | binding [2]
1 | Enolase 1 (ENO1), endogenous in C4-2B cells (from UniProt P06733 1-434) (receptor) | binds | – | –
2 | Growth factor receptor-bound protein 2 (GRB2), endogenous in C4-2B cells (from UniProt P62993 1-217) | – | binds | binds

Source: paper PMC11727142
